Laboratory results reported in patent US20250057791A1, “PROTECTION AGAINST ARTHROPOD PARASITES WITH PURINERGIC RECEPTOR (OPR) ANTAGONISTS” (priority 2021, published 2025).
At least one structure is not confirmed: it was looked up by name or label, or the drawing left a doubt.

Columns and labels:
Assay type in all cases: in vivo
Ixodes ricinus = test: Glass capillary feeding of partly fed female ticks, Ixodes ricinus; conditions: doses as in Table 9
Description: I. ricinus adults were prefed for 3-4 days and A. hebraeum adults for 10 days on a membrane over bovine blood (Kröber T. and Guerin P. M., 2007, supra). Partly fed I. ricinus and A. hebraeum, freshly detached from the membrane, were tightly fixed by the scutum and alloscutum to double-sided adhesive tape (Tesafix® 4964, Beiersdorf, Hamburg, Germany) on a glass slide and secured with plasticine. Test compounds were fed to these partly-fed female ticks using borosilicate capillary tubes (Clark GC120-10, 0.69 mm i.d., 1.2 mm o.d., 50 mm long; Clark Electromedical Instruments, Pangbourne, Reading, UK) with drawn out tips adapted to fit around the mouthparts of individual ticks. Feeding capillaries were filled with a solution of 100 mM NaCl, 8.9 mM NaHCO3 with 1000 μM ATP added, hereafter termed tick feeding solution (TFS) that served as positive control in each feeding experiment. PR antagonists were added to the TFS and pH of the solution was adjusted to 7.2-7.8. Capillary-fed ticks were kept in a plastic box on a warm plate at 34° C. and 80% RH using wet paper. After 1 h, the amount of solution imbibed by a tick was indicated by the drop of the meniscus in the capillary and measured using Vernier callipers and converted to mg. […]

Ornithodorus moubata = test: Silicone membrane feeding of N3, N4 nymphs, Ornithodorus moubata; conditions: doses as in Table 9
Protocol: O. moubata nymphs were fed for 25 min through a membrane (50-75 μm thick) as for hard ticks in glass feeding unit on TFS containing 1000 μM ATP as positive control in each feeding experiment. PR antagonists were added to the TFS as for hard ticks. One compound, TMP was applied onto the membrane in aqueous solution (8 μg TMP in 70 μl) in small drops using a micropipette. Individual nymphs were marked on the dorsum with nail varnish in distinguishable colours and weighed before and after the experiment.
Uptake of TFS containing PR antagonists, converted to mg/h for hard ticks and weight gains in mg/25 min for soft ticks, was compared to TFS uptake in the corresponding positive controls. […] For tsetse and horn flies the percentage flies that fed per antagonist treatment served as the criterion for inhibition of feeding. As horn fly sexes emerged within 24 h, both sexes were assumed to show the same degree of appetence. In tsetse, males emerged first so a gender-related appetence could not be excluded. No sex-related feeding differences in feeding were found for testse (GLM, P>0.05) so data for the sexes were pooled. Comparisons of percentage fed flies were made using a Bayesian GLM—the most appropriate model considering the zero-inflated distributions shown by the data sets. […] P-values were corrected using Holm's FWEC in multiple comparisons of data for each tick and fly species.

Glossina pallidipes = test: Membrane feeding assay, tsetse fly Glossina pallidipes; conditions: doses as in Table 10
Protocol: (§1) Flies of both species were transferred 30 min before feeding experiments to feeding cages as used for mosquitoes at 24° C., 80% RH in an environmental cabinet. Teneral tsetse were fed at 2 to 4 days old during the photophase with between 7 and 13 flies per feeding cage, covered with a black cloth. Horn flies were tested at 1 and 2 days old in the photophase with between 6 and 21 flies per cage. Both fly species were fed using small Hemotek feeding reservoirs (29 mm diameter, 1 ml) equipped with a membrane as for mosquitoes. Horn flies were fed for 15 min with feeding reservoirs placed on the cage. For tsetse, cages were closed with black mosquito netting at the bottom to allow flies to feed through the membrane placed under the cage. Feeding time (1.5 to 6 min) for tsetse was adjusted as a function of age to achieve at least 30% feeding on the positive control included in each feeding experiment. The positive control for both fly species contained 150 mM NaCl, 8.9 mM NaHCO3 with 100 μM ATP added, hereafter termed fly feeding solution (FFS). The pH of the FFS was adjusted as for ticks. The effect of TMP on feeding by G. pallidipes was also tested at 16 μg TMP/cm^2 dissolved in 140 μl hexane and applied homogeneously to the membrane surface using a micropipette. […] Tsetse that had fed were identified with swollen abdomens and counted at the end of a feeding experiment. […]

Haematobia irritans = test: Membrane feeding assay, horn fly Haematobia irritans; conditions: doses as in Table 10
Protocol: as §1

Cc1ccc(C(=O)Nc2ccc(S(=O)(=O)O)c3cc(S(=O)(=O)O)cc(S(=O)(=O)O)c23)cc1NC(=O)c1cccc(NC(=O)Nc2cccc(C(=O)Nc3cc(C(=O)Nc4ccc(S(=O)(=O)O)c5cc(S(=O)(=O)O)cc(S(=O)(=O)O)c45)ccc3C)c2)c1 [Suramin]
inhibited feeding: effect on feeding on solution containing ATP, in words (Ixodes ricinus) | effect on feeding, compound in solution containing ATP, in words (Ornithodorus moubata) | effect on feeding, compound in solution containing ATP, in words (Glossina pallidipes) | effect on feeding on solutions containing ATP, in words (Haematobia irritans)
